Results are given in words; binding and its absence hold for the method and conditions named. Binding seen in cells or lysates may run through a third protein. Some results given as binding are weak or reduced against the parent protein; the word gives no strength. For part of these data: Sequences can lack the tags named with a protein. Values belong to the molecule of their own block, whether it stands above or below them.
Assays:
Myc-TRIM3 = biological target: T1, Myc-TRIM3 (UniProt O75382); experiment: co-IP; HEK293 cells transfected with Myc-TRIM3 and HA-ER alpha full length or mutants; co-IP with anti-Myc antibody, detection with anti-HA antibody
T1 sequence: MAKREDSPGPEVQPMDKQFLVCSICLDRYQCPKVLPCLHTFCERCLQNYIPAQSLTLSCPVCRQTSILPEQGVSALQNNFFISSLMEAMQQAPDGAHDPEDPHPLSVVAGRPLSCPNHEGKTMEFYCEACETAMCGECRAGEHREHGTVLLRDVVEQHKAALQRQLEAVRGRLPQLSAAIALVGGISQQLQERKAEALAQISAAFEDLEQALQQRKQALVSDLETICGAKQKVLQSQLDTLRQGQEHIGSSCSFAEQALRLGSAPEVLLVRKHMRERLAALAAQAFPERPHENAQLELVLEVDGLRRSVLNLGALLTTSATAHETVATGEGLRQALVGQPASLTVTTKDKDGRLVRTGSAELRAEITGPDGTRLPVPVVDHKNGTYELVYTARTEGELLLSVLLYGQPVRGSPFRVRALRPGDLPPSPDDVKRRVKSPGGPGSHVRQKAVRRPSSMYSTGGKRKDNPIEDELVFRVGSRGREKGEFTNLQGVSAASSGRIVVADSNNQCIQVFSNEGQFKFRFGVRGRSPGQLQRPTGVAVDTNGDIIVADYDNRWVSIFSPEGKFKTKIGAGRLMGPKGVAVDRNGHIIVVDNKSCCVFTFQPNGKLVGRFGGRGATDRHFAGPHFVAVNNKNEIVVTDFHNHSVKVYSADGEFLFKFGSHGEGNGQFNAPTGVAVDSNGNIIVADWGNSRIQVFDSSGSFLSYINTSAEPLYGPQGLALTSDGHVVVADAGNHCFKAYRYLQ

Chains of the proteins cited; added tags and fusions are not shown.
UniProt P03372: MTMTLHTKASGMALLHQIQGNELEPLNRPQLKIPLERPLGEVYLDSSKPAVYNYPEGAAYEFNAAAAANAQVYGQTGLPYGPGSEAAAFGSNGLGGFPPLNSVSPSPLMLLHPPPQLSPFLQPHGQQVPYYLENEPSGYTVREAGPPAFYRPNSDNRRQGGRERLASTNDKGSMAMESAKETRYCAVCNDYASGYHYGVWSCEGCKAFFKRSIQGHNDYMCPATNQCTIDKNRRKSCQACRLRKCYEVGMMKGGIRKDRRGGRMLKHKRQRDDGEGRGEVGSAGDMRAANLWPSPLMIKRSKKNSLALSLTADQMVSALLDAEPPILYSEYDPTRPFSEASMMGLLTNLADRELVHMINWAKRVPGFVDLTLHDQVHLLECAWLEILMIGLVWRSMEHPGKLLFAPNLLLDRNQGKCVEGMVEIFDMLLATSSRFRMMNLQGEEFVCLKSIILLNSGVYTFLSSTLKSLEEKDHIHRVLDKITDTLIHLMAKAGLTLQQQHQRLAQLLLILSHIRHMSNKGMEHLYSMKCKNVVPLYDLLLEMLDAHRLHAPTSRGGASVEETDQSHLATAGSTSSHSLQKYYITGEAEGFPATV

[1] = biological target: Estrogen receptor (ER) alpha (human (endogenous in MCF-7)) (UniProt P03372); experiment: co-IP; endogenous proteins; MCF-7 total cell lysate precleared with rabbit IgG, immunoprecipitated with anti-ER alpha antibody overnight, rabbit IgG as negative control; blot with anti-TRIM3
HA-ER alpha full length = HA-ER alpha full length (UniProt P03372); experiment: co-IP; HEK293 cells transfected with HA-ER alpha and GFP-TRIM3 full length or mutants; co-IP with anti-HA antibody, detection with GFP antibody

binding (Myc-TRIM3): binds
Molecule: HA-ER alpha full length (from UniProt P03372 1-595)

binding [1]: binds
B1: TRIM3 (tripartite motif containing 3) (protein, UniProt O75382 1-744)
chain: MAKREDSPGPEVQPMDKQFLVCSICLDRYQCPKVLPCLHTFCERCLQNYIPAQSLTLSCPVCRQTSILPEQGVSALQNNFFISSLMEAMQQAPDGAHDPEDPHPLSVVAGRPLSCPNHEGKTMEFYCEACETAMCGECRAGEHREHGTVLLRDVVEQHKAALQRQLEAVRGRLPQLSAAIALVGGISQQLQERKAEALAQISAAFEDLEQALQQRKQALVSDLETICGAKQKVLQSQLDTLRQGQEHIGSSCSFAEQALRLGSAPEVLLVRKHMRERLAALAAQAFPERPHENAQLELVLEVDGLRRSVLNLGALLTTSATAHETVATGEGLRQALVGQPASLTVTTKDKDGRLVRTGSAELRAEITGPDGTRLPVPVVDHKNGTYELVYTARTEGELLLSVLLYGQPVRGSPFRVRALRPGDLPPSPDDVKRRVKSPGGPGSHVRQKAVRRPSSMYSTGGKRKDNPIEDELVFRVGSRGREKGEFTNLQGVSAASSGRIVVADSNNQCIQVFSNEGQFKFRFGVRGRSPGQLQRPTGVAVDTNGDIIVADYDNRWVSIFSPEGKFKTKIGAGRLMGPKGVAVDRNGHIIVVDNKSCCVFTFQPNGKLVGRFGGRGATDRHFAGPHFVAVNNKNEIVVTDFHNHSVKVYSADGEFLFKFGSHGEGNGQFNAPTGVAVDSNGNIIVADWGNSRIQVFDSSGSFLSYINTSAEPLYGPQGLALTSDGHVVVADAGNHCFKAYRYLQ

binding (HA-ER alpha full length): binds
B2: GFP-TRIM3 full length (protein, UniProt O75382 1-744)
chain: MAKREDSPGPEVQPMDKQFLVCSICLDRYQCPKVLPCLHTFCERCLQNYIPAQSLTLSCPVCRQTSILPEQGVSALQNNFFISSLMEAMQQAPDGAHDPEDPHPLSVVAGRPLSCPNHEGKTMEFYCEACETAMCGECRAGEHREHGTVLLRDVVEQHKAALQRQLEAVRGRLPQLSAAIALVGGISQQLQERKAEALAQISAAFEDLEQALQQRKQALVSDLETICGAKQKVLQSQLDTLRQGQEHIGSSCSFAEQALRLGSAPEVLLVRKHMRERLAALAAQAFPERPHENAQLELVLEVDGLRRSVLNLGALLTTSATAHETVATGEGLRQALVGQPASLTVTTKDKDGRLVRTGSAELRAEITGPDGTRLPVPVVDHKNGTYELVYTARTEGELLLSVLLYGQPVRGSPFRVRALRPGDLPPSPDDVKRRVKSPGGPGSHVRQKAVRRPSSMYSTGGKRKDNPIEDELVFRVGSRGREKGEFTNLQGVSAASSGRIVVADSNNQCIQVFSNEGQFKFRFGVRGRSPGQLQRPTGVAVDTNGDIIVADYDNRWVSIFSPEGKFKTKIGAGRLMGPKGVAVDRNGHIIVVDNKSCCVFTFQPNGKLVGRFGGRGATDRHFAGPHFVAVNNKNEIVVTDFHNHSVKVYSADGEFLFKFGSHGEGNGQFNAPTGVAVDSNGNIIVADWGNSRIQVFDSSGSFLSYINTSAEPLYGPQGLALTSDGHVVVADAGNHCFKAYRYLQ

From article PMC8991925
